These results are taken from publication PMC4764856.

Sequences of proteins named here, by UniProt entry; tags and fusion partners are left off.
UniProt P84022: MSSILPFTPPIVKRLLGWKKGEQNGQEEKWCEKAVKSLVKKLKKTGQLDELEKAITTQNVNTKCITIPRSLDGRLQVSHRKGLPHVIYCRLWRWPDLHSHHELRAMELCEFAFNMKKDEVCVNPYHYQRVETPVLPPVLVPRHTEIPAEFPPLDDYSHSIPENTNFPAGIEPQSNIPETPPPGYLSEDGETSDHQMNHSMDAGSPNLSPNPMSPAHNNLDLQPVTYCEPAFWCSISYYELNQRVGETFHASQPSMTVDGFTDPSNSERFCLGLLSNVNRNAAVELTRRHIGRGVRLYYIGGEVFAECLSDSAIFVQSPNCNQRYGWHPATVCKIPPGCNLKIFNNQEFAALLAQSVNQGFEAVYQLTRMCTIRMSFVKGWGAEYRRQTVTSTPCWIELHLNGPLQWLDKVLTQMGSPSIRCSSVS
UniProt Q13485: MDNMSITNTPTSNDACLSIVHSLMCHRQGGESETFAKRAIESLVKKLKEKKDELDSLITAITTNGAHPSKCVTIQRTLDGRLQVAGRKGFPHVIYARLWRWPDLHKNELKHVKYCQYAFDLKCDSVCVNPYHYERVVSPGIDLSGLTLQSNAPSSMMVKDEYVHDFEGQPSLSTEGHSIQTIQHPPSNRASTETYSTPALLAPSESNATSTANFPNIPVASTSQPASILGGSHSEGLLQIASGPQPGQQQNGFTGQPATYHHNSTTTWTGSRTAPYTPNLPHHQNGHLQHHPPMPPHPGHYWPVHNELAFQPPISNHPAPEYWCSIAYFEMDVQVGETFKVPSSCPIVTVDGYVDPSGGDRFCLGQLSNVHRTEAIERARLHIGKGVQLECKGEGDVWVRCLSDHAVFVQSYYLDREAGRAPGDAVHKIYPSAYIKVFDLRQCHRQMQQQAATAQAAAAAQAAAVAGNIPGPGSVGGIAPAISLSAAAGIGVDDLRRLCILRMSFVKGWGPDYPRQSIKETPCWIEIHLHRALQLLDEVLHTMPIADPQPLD

These are yes or no findings as the source states them, for the method shown. In cells and extracts the contact can be indirect. Some entries that bind do so weakly or less than the wild type.

One test addresses Flag-Smad3 (UniProt P84022). In words: co-IP; HEK 293 cells transiently transfected with the Flag fusion, stimulated with Activin for 1 hr; lysed in RIPA buffer; anti-Flag M2 beads, 4 °C overnight; blot with anti-Smad4.
The target in another test is GFP-Smad3 (UniProt P84022). In words: co-IP; HEK 293 cells stably expressing the GFP fusion, with or without Activin for 1 hr; lysed in cold RIPA buffer; GFP antibody with Protein-G Sepharose beads, 4 °C overnight; blot with anti-Smad4.

On to Smad4 (from UniProt Q13485 1-552), for which the binding entry with Flag-Smad3 and in the test with GFP-Smad3 was “binds weakly” in each case.
